Assay results published in publication PMC4741960.
Results are given in words; binding and its absence hold for the method and conditions named. Binding seen in cells or lysates may run through a third protein. Some binding calls cover weakened binding; strength is not graded here. For some of these results: Tags and fused reporters may be left off the sequences shown.

By UniProt entry, the sequences of proteins in these tests, tags left out.
UniProt P10275: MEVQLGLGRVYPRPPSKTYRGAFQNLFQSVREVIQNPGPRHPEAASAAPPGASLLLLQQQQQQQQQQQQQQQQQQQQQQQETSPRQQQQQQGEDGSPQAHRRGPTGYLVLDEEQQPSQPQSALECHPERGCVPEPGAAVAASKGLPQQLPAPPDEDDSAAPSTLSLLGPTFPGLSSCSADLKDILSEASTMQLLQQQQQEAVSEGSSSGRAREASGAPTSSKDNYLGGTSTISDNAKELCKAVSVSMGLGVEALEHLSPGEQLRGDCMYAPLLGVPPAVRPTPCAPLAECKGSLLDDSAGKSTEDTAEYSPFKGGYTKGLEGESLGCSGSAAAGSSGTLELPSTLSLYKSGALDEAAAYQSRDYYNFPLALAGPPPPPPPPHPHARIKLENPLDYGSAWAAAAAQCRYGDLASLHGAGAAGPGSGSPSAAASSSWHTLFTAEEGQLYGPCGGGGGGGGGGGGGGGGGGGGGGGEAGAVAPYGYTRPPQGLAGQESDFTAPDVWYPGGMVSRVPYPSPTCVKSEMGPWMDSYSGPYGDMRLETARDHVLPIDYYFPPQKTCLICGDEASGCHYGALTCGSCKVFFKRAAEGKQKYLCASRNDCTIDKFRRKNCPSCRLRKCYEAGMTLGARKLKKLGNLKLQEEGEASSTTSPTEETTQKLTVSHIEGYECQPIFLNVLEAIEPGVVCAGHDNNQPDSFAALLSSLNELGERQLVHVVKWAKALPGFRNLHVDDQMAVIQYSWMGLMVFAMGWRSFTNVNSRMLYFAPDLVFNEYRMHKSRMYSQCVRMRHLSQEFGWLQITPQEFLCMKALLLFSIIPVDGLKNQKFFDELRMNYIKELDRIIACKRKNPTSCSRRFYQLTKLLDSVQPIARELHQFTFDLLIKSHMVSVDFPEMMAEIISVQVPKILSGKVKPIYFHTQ
UniProt O75317: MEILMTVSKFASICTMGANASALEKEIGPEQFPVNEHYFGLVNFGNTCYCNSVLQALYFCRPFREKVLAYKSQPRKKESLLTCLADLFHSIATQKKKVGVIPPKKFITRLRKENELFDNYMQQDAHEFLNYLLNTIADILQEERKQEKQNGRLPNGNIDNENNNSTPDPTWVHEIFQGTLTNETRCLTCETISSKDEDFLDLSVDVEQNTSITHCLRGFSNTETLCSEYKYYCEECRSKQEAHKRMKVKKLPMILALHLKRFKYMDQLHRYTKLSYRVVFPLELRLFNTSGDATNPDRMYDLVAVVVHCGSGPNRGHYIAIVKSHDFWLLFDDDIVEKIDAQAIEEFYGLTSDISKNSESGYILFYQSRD
UniProt Q8TAF3: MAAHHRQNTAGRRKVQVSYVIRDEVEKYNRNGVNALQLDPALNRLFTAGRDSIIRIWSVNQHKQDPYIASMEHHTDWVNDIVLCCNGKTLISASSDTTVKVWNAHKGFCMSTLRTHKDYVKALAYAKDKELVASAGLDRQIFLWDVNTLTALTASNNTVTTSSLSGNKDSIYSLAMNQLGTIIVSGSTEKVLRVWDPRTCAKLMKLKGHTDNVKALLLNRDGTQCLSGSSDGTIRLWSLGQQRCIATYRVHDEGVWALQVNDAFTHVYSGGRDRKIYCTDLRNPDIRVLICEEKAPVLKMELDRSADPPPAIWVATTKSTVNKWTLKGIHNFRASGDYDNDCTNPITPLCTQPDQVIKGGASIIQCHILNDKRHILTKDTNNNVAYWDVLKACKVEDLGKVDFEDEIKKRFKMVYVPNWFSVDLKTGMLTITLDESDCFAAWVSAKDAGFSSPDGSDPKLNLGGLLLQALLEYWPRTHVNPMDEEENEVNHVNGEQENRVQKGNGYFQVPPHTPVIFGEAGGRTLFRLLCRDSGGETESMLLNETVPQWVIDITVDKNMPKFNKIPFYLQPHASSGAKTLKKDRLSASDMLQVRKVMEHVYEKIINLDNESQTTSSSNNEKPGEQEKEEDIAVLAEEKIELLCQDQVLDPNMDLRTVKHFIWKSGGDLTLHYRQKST

T1: HA-Flag-WDR20 (UniProt Q8TBZ3)
T1 sequence: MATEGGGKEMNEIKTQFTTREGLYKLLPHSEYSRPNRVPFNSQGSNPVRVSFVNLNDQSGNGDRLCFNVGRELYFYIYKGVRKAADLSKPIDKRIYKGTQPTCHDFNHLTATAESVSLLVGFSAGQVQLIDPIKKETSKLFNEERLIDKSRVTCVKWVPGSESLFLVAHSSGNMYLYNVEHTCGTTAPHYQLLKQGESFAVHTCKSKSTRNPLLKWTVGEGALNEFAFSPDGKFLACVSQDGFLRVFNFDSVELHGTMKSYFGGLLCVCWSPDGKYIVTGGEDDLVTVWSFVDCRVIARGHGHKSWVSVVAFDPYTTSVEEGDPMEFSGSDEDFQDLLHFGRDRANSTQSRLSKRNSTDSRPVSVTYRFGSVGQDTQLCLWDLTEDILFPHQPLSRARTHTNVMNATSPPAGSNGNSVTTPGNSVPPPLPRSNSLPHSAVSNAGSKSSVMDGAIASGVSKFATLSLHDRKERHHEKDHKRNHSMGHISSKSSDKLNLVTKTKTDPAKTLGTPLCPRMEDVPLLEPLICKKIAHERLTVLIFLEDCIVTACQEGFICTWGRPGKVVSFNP


Key:
HA-Flag-WDR20 [1] = target: T1, HA-Flag-WDR20; assay: co-IP; HEK293T cells transfected with pHA-Flag-WDR20, pFlag-Uaf-1 and pFlag-Usp12, 48 h; exogenous WDR20 immunoprecipitated with 1 ug anti-HA antibody; immunoblotting
HA-Flag-WDR20 [2] = target: T1, HA-Flag-WDR20; assay: co-IP; cells (COS-7 by the legend, HEK293T by the text) transfected with pFlag-AR and pHA-Flag-WDR20, 48 h; immunoprecipitation for WDR20 or IgG control; immunoblotting
[3] = target: Endogenous androgen receptor (human (endogenous in VCaP)) (UniProt P10275); assay: co-IP; VCaP cells cultured in full media or steroid depleted media for 96 h; endogenous AR immunoprecipitated with 1 ug anti-AR antibody or IgG control; immunoblotting
[4] = target: Endogenous Usp12 (human (endogenous in LNCaP and VCaP)) (UniProt O75317); assay: co-IP; endogenous Usp12 immunoprecipitated from LNCaP cells; probed for Uaf-1 and WDR20 by immunoblotting; IgG as negative control

binding (HA-Flag-WDR20 [1])	binding (HA-Flag-WDR20 [2])	binding [3]	binding [4]	Molecule
binds	–	–	–	Flag-Usp12 (from UniProt O75317 1-370) (enzyme)
–	binds	–	–	Flag-AR (from UniProt P10275 1-920) (receptor)
–	–	binds	–	Endogenous Usp12 (from UniProt O75317 1-370) (enzyme)
–	–	binds	binds	Endogenous Uaf-1 (from UniProt Q8TAF3 1-677)
–	–	binds	binds	Endogenous WDR20 (protein, UniProt Q8TBZ3 1-569) MATEGGGKEMNEIKTQFTTREGLYKLLPHSEYSRPNRVPFNSQGSNPVRVSFVNLNDQSGNGDRLCFNVGRELYFYIYKGVRKAADLSKPIDKRIYKGTQPTCHDFNHLTATAESVSLLVGFSAGQVQLIDPIKKETSKLFNEERLIDKSRVTCVKWVPGSESLFLVAHSSGNMYLYNVEHTCGTTAPHYQLLKQGESFAVHTCKSKSTRNPLLKWTVGEGALNEFAFSPDGKFLACVSQDGFLRVFNFDSVELHGTMKSYFGGLLCVCWSPDGKYIVTGGEDDLVTVWSFVDCRVIARGHGHKSWVSVVAFDPYTTSVEEGDPMEFSGSDEDFQDLLHFGRDRANSTQSRLSKRNSTDSRPVSVTYRFGSVGQDTQLCLWDLTEDILFPHQPLSRARTHTNVMNATSPPAGSNGNSVTTPGNSVPPPLPRSNSLPHSAVSNAGSKSSVMDGAIASGVSKFATLSLHDRKERHHEKDHKRNHSMGHISSKSSDKLNLVTKTKTDPAKTLGTPLCPRMEDVPLLEPLICKKIAHERLTVLIFLEDCIVTACQEGFICTWGRPGKVVSFNP
